# Data taken from publication PMC10845952.
# No constants are given. Whether binding was seen depends on the method and setting. Binding seen in cells or lysates may run through a third protein. Here binding means that the protein was enriched with, or labelled near, the bait; the list need not be complete. Where a sequence is shown, tags or fusion partners need not be part of it.
# T1: MecA with C-terminal tandem affinity purification (TAP) tag (3x HA + FLAG) (S. mutans) (UniProt Q8DW33)
# T1 sequence: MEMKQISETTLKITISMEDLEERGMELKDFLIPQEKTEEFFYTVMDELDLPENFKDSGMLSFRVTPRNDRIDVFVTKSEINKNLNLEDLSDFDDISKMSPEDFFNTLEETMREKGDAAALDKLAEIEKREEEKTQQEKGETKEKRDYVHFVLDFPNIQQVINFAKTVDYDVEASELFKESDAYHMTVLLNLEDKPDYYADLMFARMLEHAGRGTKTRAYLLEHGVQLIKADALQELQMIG
# B1: Non-ribosomal peptide synthetase, BacD (protein, UniProt Q8DTJ8 1-1455)
# chain: MIWDKVLDHKIDSTQTNFFSEGGNSLIATLVISEIKNTYHVDVSFEDLLKNDSIEKLANFIVNQLWLSKQVINNKTLEKESKSIDTLEEESGPVDSLKASPQQSRMVLNQLFNPSSTAFNIPVIFQLTDQFDKNEFEDCLKEIIKKHQTLNINFSINEDGIFQKVQNQIIDVREIKIAAFDETLSSIISPFEIGKDSLIRLIYADAPSEKYLILDFHHSIIDGYSIVLLHNELFKKLSDEKIYFENVDYFDYCIWMEKYIHSPSYKKQEKFWLKIFENYQLIQHLKQKSNSTFEGDSIEFSFSKDLNKKIRETTKEWGISIYSFLLSMYAQLIHKEHNLYDFIIGTPVSGRTNPRFIKTIGMFINTLPIRVKINDSENYEQYSQRMNSNIRKMLENQDYQFDHLVEQLKKINPQLPRLEFETMFNYQNYSRNWKSLEKFGLNHITVRQNSEKFNFSMTLEEREDEILGCFSFNVEVLTRNEAKWYVEQFINICEEAVVQKDINTVTTLQNIEDTNIYYKIMENLSDFNGKTALVSYKSKVEYAELDQFVDNYVQRFKQEGIRKSDRIAIMMDRSIENVLVILAILKIGACYIPIDSKFPESRKKFILKDANCKYIVNNKQVIKNVEYEAKELDSSELNLAYIIYTSGSTGQPKGVKITQSNLYSFLKAISNRFSQYNYSSILCVTSISFDIFILETLFPIFMGKTCVFASDEEIEDISKLTQLIRIYQVDTIQSTPSRWGIFTEDEQLMTLLKERLKLVLVGGEKLTKNIAEKLLSIGGKLINLYGPTEATVWAFASEVTDPNQIYLGEPLNNTTAYILDENGKESPKGELCLQGSGVSPGYQNRPELTEKSFVKSLKHGNNILYHTGDIVEYTNDQDYLFIGRKDDQVKVNGYRVELGEIDSIISKMSKIKRAKTIYQEETGNLIAFCESKEHCSDIETRKELSKILPKYMLPNSIIFLSEMPLMINGKIDTSKLKNKYLQIAKKSLVLSENVEELSATQQHLIKIFKSVTGYALDRDENFFEVGISSLNILRVIQHLKKTYSVDYSNLVDYPTISSLSSYLDNLSEKKLVRKVNSDKDRTQISKINEREVLNVGRKGILLTGSTGFLGCHLLKELLKQKRPIHLLIRGKNVEDIYKRLAEKFYYYFSEDLAIYSSQLHFYCGDLEKVYCGLEESEFKKLCTQVSDVINSAASVKHFGKYEDFYKSNVISVKNLITFCKESQSALFHISTISLANICDLKANQSFSEEIILTNASTSNVYLQTKYEAEKTIFEAISEGLKANILRVGNIVGSSKTGIFQMNIEENAFYQILRSFFKLKMIPDSNEKSLEFTFVDECALAISEIINNKHLTGVYHIFNQNKISFNELFDFIKTQYPYLKKMTFSKIEETQGLKGTDAEEYFDIIKIHSSTANKNVAKIDNIFTNQLLDKYNFCWSRVDKKTILLLLEYCKEINFI
# B2: Response regulator transcription factor, GcrR (protein, UniProt Q9S151 1-230)
# chain: MAKDILIIEDEKKLAKFVSLELQHEGYEVEVTYDGRSGLERALEKDFDLILLDLMLPEMDGYEVIRRLQLEKTTYVIIITARDSIMDIVTGLDRGADGYIVKPFAIEELLARVRAIFRRQDIEKAKHSSKNDTTYRDLKLDVHNRAAIRNGETIPLTKREFDLLNALVENINQVMTREELLARVWKYDQEAETNVVDVYIRYLRGKIDVPGKESYIQTVRGMGYIIRENN
# B3: Response regulator transcription factor, CovR (protein, UniProt Q93MY4 1-235)
# chain: MKKILIVDDEKPISDIIKFNLAKEGYDTITAFDGREALSKYEEENPDLIILDLMLPELDGLEVAKEVRKNSHVPIIMLSAKDSEFDKVIGLEIGADDYVTKPFSNRELLARVKAHLRRTENIESAVAEENASGIPEIIIGDLQILPDAFVAKKRGTEVELTHREFELLHHLATHTGQVMTREHLLETVWGYDYFGDVRTVDVTVRRLREKIEDTPSRPEYILTRRGVGYYMKSYD
# Target: T1, MecA with C-terminal tandem affinity purification (TAP) tag (3x HA + FLAG) (S. mutans)
# Assay: affinity purification with mass spectrometry
row,Binder,binding
1,B1,binds
2,B2,binds
3,B3,binds
